Data reported in the supplement of paper PMC10338343.
± gives the standard deviation. Only a part is listed here, and it is no random draw. Many of these values have a large error.

These sequences were tested on MIWI (PIWIL1) piRISC loaded with piRNA #2 (30 nt) (assay: pre-steady-state target cleavage rate (min^-1); MIWI and MILI are mouse PIWI proteins and EfPiwi is from a freshwater sponge; tags in brackets are library labels; higher = faster piRNA-guided slicing of the target). Details: guide: piRNA #2 5'p-UUAGGUAACCCAGUAGAUCCAGAGGAAUUC; auxiliary factor: 500 nM mouse GTSF1.
In short: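 Active affinity-purified piRISC carrying one synthetic guide (1 nM) was mixed with a transcribed, DNA-blocked target RNA library […] in HEPES–potassium acetate buffer at 33 °C for 0–8 or 0–960 min, with or without 500 nM GTSF1 partner protein. Uncleaved targets were then sequenced and normalised to depth and to weakly complementary targets. Three trials were pooled, and k3 was capped at 0.0001 min^-1. A burst-and-steady-state fit was applied to obtain the pre-steady-state cleavage rate.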
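Further: 1 nM active piRISC with 0.1 nM target library at 33 °C single turnover.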

Sequence	pre-steady-state target cleavage rate
CUUAAGGUGACGAUCUACUGGGUUACCUAA	0.0052 ± 0.0036
CUUAAGGAGACCUUCUACUGGGCUUACCUAA	0.000946 ± 0.008
CUUAAGGAGACCAUCUACUGGGUUAGCAAA	0.000432 ± 0.013
CUUAAGGAGACCUAGAUGAGGAGUUACCUAA	0.0027 ± 0.0049
GAAUUCCUCUGGAUCUACUGGGAUACCAAA	0.192 ± 0.06
CUUAAGGAGACCUAGAUGACGGUUACGAUA	0.00019 ± 0.033
CUUAAGGAGAGGAUCUAGUGCGUUACCUAA	0.00246 ± 0.0038
CUUAAGGAGAGGAUCUACUGGUGUUACCUAA	0.000147 ± 0.039
CUUAAGGAGACGAUCUACUGGUUUACCUAA	0.00268 ± 0.0034
CUUAAGGAGACCUAGAACUGGGUUAUCUAA	0.000224 ± 0.023
CUUAAGGAGACCUACUACUGCGUUACGUAA	0.00147 ± 0.0037
GAAUUCCUCUGGAUCUACUGGCAAUGGAUA [g10:g30:cont:t1A]	0.000234 ± 0.022
CUUAAGGAGACCUUCUACUGGGUUCCCUAA	0.000938 ± 0.011
CUUAAGGACUGGAUCUACUCCGUUACCUAA	0.00337 ± 0.014
CUUAAGGAGAGGAUCUACUGGUUACCUAA	0.00119 ± 0.01
CUUAAGGAGACCAUUUACUGGGUUACCUAA	0.0017 ± 0.0071
CUUAAGGAGACCAUCUACUGGGUUACCCUAA	0.0016 ± 0.0056
CUUAAGGAGACCUAGUACUGGAGUUACCUAA	0.00213 ± 0.0049
CUUAAGGAGAGGAUCUAACUGGGUUACCUAA	0.000155 ± 0.039
CUUAAGGACUGGAUCAUACUGGGUUACCUAA	0.000587 ± 0.031
CUUAAGGAGUGGAUCUACUGGGUUACCAUA	0.0428 ± 0.015
CUUAAGGAGAGCAUCUACUGGGUAACCUAA	0.000875 ± 0.007
CUUAAGGAGUGGAACUACUCGGUUACCUAA	0.00272 ± 0.011

Sequence	pre-steady-state target cleavage rate
CUUAAGGAGACCUACUACUCGGGUUACCUAA	0.000473 ± 0.011
CUUAAGGAGACCUUCUACGGGGUUACCUAA	0.00164 ± 0.0068
CUUAAGGAGACCAUUCUACUGGGUUACCUAA	0.00407 ± 0.0043
CUUAAGGAGAGGAUCAACUGGGAUACCUAA	0.000119 ± 0.051
CAAUUCCUCUGGUUCUACUGGGAUACCUAA	0.145 ± 0.038
CUUAAGGAGACCUUCUCACUGGGUUACCUAA	0.00181 ± 0.0039
CUUAAGGAGACCUACUACUGCCUUACCUAA	0.000973 ± 0.009
CUUAAGGAGACGAUCUACUGGGUAACCUUA	0.00026 ± 0.012
CUUAAGGAGACGAUCUACUCGGUUACCAAA	0.00029 ± 0.028
CUAUUCCUCUGGAUCUACUGGGUUACAUAA	0.739 ± 0.051
CUUAAGGAGACCAUCUACUGCGGUUACCUAA	0.00337 ± 0.0045
CUUAAGGAGUCGAUCUACUGGGUUAGCUAA	0.000207 ± 0.051
CUAUUCCUGUGGAUCUACUGGCUUACCUAA	0.0662 ± 0.017
CAAUUCCUCUGGAUCUAACUGGGUUACCUAA	0.00269 ± 0.0055
CUUAAGGAGACCUUCUACUGGGUUACCUGAA	0.00152 ± 0.0056
CUUAAGGAGACGAUCUACUGCGUAACCUAA	0.000721 ± 0.0078
CUUAAGGAGACCUAGAUCUGGGUUACGAUA	0.000347 ± 0.014
CUUAAGUUCUGGAUCUACUGGGUUACCUAA	0.274 ± 0.04
CUUAAGGAGACGAUCUACUGGGAUUACCUAA	0.001 ± 0.008
CUUAAGGAGACGAACUACUGCGUUACCUAA	0.000528 ± 0.007
CUUAAGGAGAGGAUCUACUGGGUAUGCUAA	0.000134 ± 0.043
CUUAAGGAGACGAACUACUGGGUUACCUUA	0.0007 ± 0.0057
CUUAAGGAGACGAACUACUGGGUUACGUAA	0.000439 ± 0.016

Sequence	pre-steady-state target cleavage rate
CUAUUCCUCUGGAUCUACUUGGGUUACCUAA	0.00165 ± 0.0065
CUAUUCCUCUGGAUCUGACUGGGUUACCUAA	0.000849 ± 0.012
CUUAUCCUCUGGAUCUUCUGGGUUACGUAA	0.45 ± 0.055
CUUAAGGAGACCUACUACCGGGUUACCUAA	0.00114 ± 0.007
CUUAAGGUCUGGAACUACUGGCUUACCUAA	0.027 ± 0.022
CUUAAGGAGACCUACUAACUGGGUUACCUAA	0.000961 ± 0.0093
CUUAAGGAGACGAUCUACUGGGUUUCCUAA	0.00205 ± 0.0044
CUUAAGGAGACCUUCGACUGGGUUACCUAA	0.000542 ± 0.0084
CUUAAGGAGACCUUCUACUGGGUCACCUAA	0.00106 ± 0.011
CUUAAGGAGAGGAUCUAAUGGGUUACCUAA	0.000703 ± 0.018
CUUAAGGAGACCUUCUACUGGGUUCACCUAA	0.00182 ± 0.0074
CUUAAGGAGACCAUCUUCUGGGUUACGUAA	0.00133 ± 0.0071
GAAUUCCUCUCGAUCUACUGGGUUUCCUAA	0.524 ± 0.06
CUUAAGGAGAGGAUCUACUGGGUACCUAA	0.000298 ± 0.015
CUUAAGGAGACCUAGUUCUGGGUUACCAAA	0.000879 ± 0.0099
CUUAAGGAGACCUUACUACUGGGUUACCUAA	0.00167 ± 0.0071
CUUAAGGAGACCUUCUACAGGGUUACCAAA	0.0016 ± 0.0047
CUUAAGGAGACCUAGUACUGGGUUUCGUAA	0.00035 ± 0.018
CUUAUCCUCUGGAUCUACUUGGGUUACCUAA	0.00126 ± 0.0071
CUUAAGGACUGGUCUACUGGGUUACCUAA	0.000539 ± 0.027
CUUAAGGAGACGAUCUACUGGGUAUCCUAA	0.00124 ± 0.0047
CUUAAGGAGACGAUCUAUGGGUUACCUAA	0.00153 ± 0.0044
CUUAACCUCUCGAUGUACUGGGUUACCUAA	0.421 ± 0.029

Sequence	pre-steady-state target cleavage rate
CUUAAGGACUGGAUCUACUGCGUUAGCUAA	0.0147 ± 0.02
CUUAAGGAGACCUAGAUCUGGGUUACUAA	0.00023 ± 0.016
CUUAAGGAGACCAUCUACUGGGUUACCAA	0.00251 ± 0.0026
CUUAAGGAGACCUAGAUCUUGGUUACCUAA	0.000361 ± 0.013
CUUAAGGAGUGCAUCUACUGGGUUACCAAA	0.00134 ± 0.0055
CUUAAGGAGACCUAGAACUGGGUUUACCUAA	0.000205 ± 0.025
CUUAAGGAGACCUAGUACUGGGUUACCUCAA	0.000733 ± 0.0095
CUUAAGCUCUGGAUCUACUGGGUUCCUAA	0.00127 ± 0.0073
CUUAAGGAGACCUAGAUCUGGGUUACCUCAA	0.000615 ± 0.015
CUUAAGGAGACCUAGAUGACGGUUCCCUAA	0.000138 ± 0.033
CUUAAGGAGACCUAGAUGAGGUUACCUAA	0.000893 ± 0.0086
CUUAAGGUCUGGAUCUACUGGGUUUGGUAA	0.00539 ± 0.0055
CUUAAGGAGACCAUCUACUGGCAUACCUAA	0.000838 ± 0.012
CUUAAGGACUGGAUGUAGUGGGUUACCUAA	0.00176 ± 0.011
CUUUUCCUCUGGAUCUAGCUGGGUUACCUAA	0.00129 ± 0.0062
CUUAAGGAGACCAUCUACAGGGUUACCAAA	0.00159 ± 0.0048
CUUAACCUCUGGAUCAUGUGGGUUACCUAA	0.000788 ± 0.0097
CUUUUCCUCUGGAUCUACUGGUGUUACCUAA	0.00402 ± 0.0035
CUUAAGGAGACCAUCCUACUGGGUUACCUAA	0.00206 ± 0.0038
CUUAAGGAGUGUAUCUACUGGGUUACCUAA	0.00745 ± 0.0081
CUUAAGGAGACCUUCUAUCUGGGUUACCUAA	0.00126 ± 0.0073
CUUAAGGAGAGGAUCUAGCUGGGUUACCUAA	0.000138 ± 0.04
CUUAAGGAGAGGAUCUUCUGGGAUACCUAA	0.000114 ± 0.051

17 entries from above, bar-delimited:
Sequence | pre-steady-state target cleavage rate
CUUAAGGUGACGAUCUACUGGGUUACCUAA | 0.0052 ± 0.0036
CUUAAGGAGACCUAGAUGACGGUUACGAUA | 0.00019 ± 0.033
CUUAAGGAGAGGAUCUAGUGCGUUACCUAA | 0.00246 ± 0.0038
CUUAAGGAGACCUAGAACUGGGUUAUCUAA | 0.000224 ± 0.023
CUUAAGGAGAGGAUCUACUGGUUACCUAA | 0.00119 ± 0.01
CUUAAGGAGACCAUCUACUGGGUUACCCUAA | 0.0016 ± 0.0056
CAAUUCCUCUGGAUCUAACUGGGUUACCUAA | 0.00269 ± 0.0055
CUUAAGGAGACCUUCUACUGGGUUACCUGAA | 0.00152 ± 0.0056
CUUAAGGAGACGAACUACUGGGUUACGUAA | 0.000439 ± 0.016
CUUAAGGAGACCUUCUACUGGGUUCACCUAA | 0.00182 ± 0.0074
CUUAAGGAGAGGAUCUACUGGGUACCUAA | 0.000298 ± 0.015
CUUAAGGAGACCUAGUUCUGGGUUACCAAA | 0.000879 ± 0.0099
CUUAAGGAGACCUAGAUCUGGGUUACUAA | 0.00023 ± 0.016
CUUAAGCUCUGGAUCUACUGGGUUCCUAA | 0.00127 ± 0.0073
CUUAAGGAGACCUAGAUGACGGUUCCCUAA | 0.000138 ± 0.033
CUUAAGGAGACCAUCUACUGGCAUACCUAA | 0.000838 ± 0.012
CUUAAGGACUGGAUGUAGUGGGUUACCUAA | 0.00176 ± 0.011
